The text below walks through data of patent US20120117670A1.

For assay [1], the target named is Human AXL-Fc (R&D Systems, #154-AL) (human) (UniProt P30530). The assay can be described thus: ELISA on plate-adsorbed human AXL-Fc (1 ug/ml), 5-fold antibody dilution series, AP-conjugated goat anti-human IgG, fluorescent substrate (Example 14).
For assay [2] the target is unchanged. The assay can be described thus: ELISA, human AXL-Fc coated plate, antibody 1 µg/ml to 0.00256 ng/ml. A general note: An ELISA detects its analyte on a solid surface through an enzyme-linked reagent.
For assay [3] the target is unchanged. The assay can be described thus: ELISA, human AXL-Fc coated plate; reference antibody.
For assay [4] the target is unchanged. Put plainly: ELISA on plate-adsorbed human AXL-Fc (1 ug/ml), 5-fold antibody dilution series, AP-conjugated goat anti-human IgG, fluorescent substrate (Example 13).
In assay [5] the target is T1, NHis-hAXL129-220 (human AXL single IG domain) (human) (UniProt P30530).
T1 sequence: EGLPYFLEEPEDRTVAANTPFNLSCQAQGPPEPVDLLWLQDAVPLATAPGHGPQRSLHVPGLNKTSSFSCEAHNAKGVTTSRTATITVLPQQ
The assay can be described thus: ELISA, plate-adsorbed AXL IG domain construct (1 µg/ml), antibody 0.04 µg/ml.

The target in assay [6] is T1, NHis-hAXL129-220 (human AXL single IG domain) (human). The assay can be described thus: ELISA on plate-adsorbed human AXL IG-domain fragment (1 ug/ml), antibody at 0.04 ug/ml, fluorescent substrate (Example 16).

Where a chain is given by its changes, count along the chain named. No constants are given. Whether binding was seen depends on the method and setting. Some entries that bind do so weakly or less than the wild type. For some assays here: Tags and fused reporters may be left off the sequences shown.

B1: h#11D5-T1 (antibody, human IgG1, kappa, V domains shown)
VH: QVQLQESGPGLVKPSQTLSLTCTVSGYSITSNYWGWIRQPPGMGLEWIGHITNSGNTTYNPSLKSRVTISVDTSENQFSLKLSSVTPADTAVYYCAKGAFDYWGQGTLVTVSS
VL: DVQMTQSPSSLSASVGDRVTITCRASQDIGNYLSWYQQKPGKAPKLLIYGAIKLAVGVPSRFSGSGSGTDFTLTISSLQPEDFATYYCLQYIQFPLTFGQGTKLEIKR
For B1, the binding result in assay [1] is reported as “binds”.

B2: h#11D5-T2 (antibody, human IgG1, kappa, V domains shown)
VH: B1 VH with Q1E, V67I, T68S
VL: B1 VL with V2I, Y36F, K45R, L47M, F71Y
In the case of B2, in assay [1], the binding result is on record as “binds”.

B3: h#11D5-T4 (antibody, human IgG1, kappa, V domains shown)
VH: B1 VH with E6Q, S7W, P9A, V12L, Q16E, M43K, V71R, E75K, P87A
VL: B1 VL with V2I, L46R, D70E, Q100G, L104V
Consider B3, for which the binding entry in assay [2] and in assay [1] was “binds” throughout.

B4: h#11D5-T3 (antibody, human IgG1, kappa, V domains shown)
VH: B1 VH with Q1E, Q39K, P40F, M43N, G44K, L45M, V67I, T68S, V71R, E75K
VL: DIQMTQSPSSLSASVGDRVTITCRASQDIGNYLSWFQQKVGKSPRRMIYGAIKLAVGVPSRFSGSRSGSDYTLTISSLQPEDFAIYYCLQYIQFPLTFGSGTKLEIKR
In the case of B4, the binding entry in assay [1] is recorded as “binds”.

B5: chimeric anti-AXL antibody ch11D5-IgG1 (antibody, V domains shown)
VH: EVQLQESGPGLVKPSQSLSLTCSVTGYSITSNYWGWIRKFPGNKMEWIGHITNSGNTTYNPSLKSRISISRDTSRNQFFLQLNSVTTEDTATYYCAKGAFDYWGQGVMVTVSS
VL: B4 VL with L11M, A13T, V15L, T72S, Q79E, P80S, F83M, I106L
Turning to B5, the binding result in assay [3] and in assay [1] was “binds” in each case.

B6: chimeric anti-AXL antibody ch11B7-IgG1 (antibody, V domains shown)
VH: EVQLQESGPGLVKPSQSLSLTCSVTGYSITSNYWGWIRKFPGDKMEWMGYITYSGSTSYNPSLKSRISITRDTSKNQFFLQLNSVTSEDTATYYCAITTFYYWGQGVMVTVSS
VL: DIQMTQAPSSLPASLGDRVTITCRASQDIGNYLRWFQQKPGKSPRLMISGATNLAAGVPSRFSGSRSGSDYSLTISSLESEDMADYYCLQSKESPWTFGGGTKLELKR
Regarding B6, the binding result in assay [3] and in assay [4] was “binds” in each case.

B7: rat anti-human AXL monoclonal antibody #11B7 (antibody, rat IgG1, V domains shown)
VH: B6 VH
VL: B6 VL
Regarding B7, the binding result in assay [5] and in assay [6] was “binds” each time.
